Reference: PubChem BioAssay AID1508600 (Functional Genomics Laboratory (NCATS/FGL), 2020)
The campaign covered roughly 53,000 sequences. About 3,700 (7%) were called active.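 The calls were made as follows: active = gene knockdowns whose robust z-score for IL-1 alpha signal is at least 2 or at most -2, so actives lie on both sides; inactive = the rest.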 The list shows a part of the results.

Assay: Components of the Cytosolic LPS Sensing Pathway: Gene Identification via Genome-wide siRNA Screen;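 also: robust z of the log signal after scaling to non-targeting control siRNA wells of the plate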
Details: RAW264.7 macrophages, IL-1a HTRF, actives lie on both sides, screened at 100 nM (by protocol), cells primed 5 h with Pam3CSK4 first
Procedure, shortened: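 RAW264.7; siRNA 100 nM final, RNAiMAX, 48h 37 degrees C; Pam3CSK4 5 h; LipidA + TransIT-TKO 24 h; IL-1a HTRF; CellTiter-Glo viability; robust z vs negative-control median.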

z-score, active:
GCAAAUGACUUCCAACAAUTT against Uqcrq 3.84
GGAGCUCGAAAAAUUUCAATT against Igfl3 2.13
GGACUUGAACAACUUACAATT against Plcb1 2.37
GCGGUUAUAAUGGGACCAUTT against Kif15 3.21

z-score, inactive:
GGAUCAUCUGCAUAAUAGATT against Rpl39l 0.161
GCUAAAGUGAGCAGCGGGATT against Gipc3 0.218
GCAGAGUGUUUAAGUUUAUTT against Cftr 1.42
CCAUAUCUCAUGAGGAAGGTT against Olfr1368 1.53
GGGCAGCUGCUAUUUAUUUTT against Fosl1 0.659
GGAUCAGUGCCUUUGGCUATT against Rhoc -1.75
GGACAAUGUGGAGAAGGAATT against BC048403 -1.52
GGCUGCUGUAACGAUGAAGTT against Vegfa -0.794
GGACAGAGAUCAAUAUUAATT against Rxfp3 -0.0718
GCGGGAAAUAGCUGACUUATT against Rabep1 -0.636
GGCCUUGGAACAGAAUCCGTT against Sugt1 0.267
CCUUAUUGAGACGAAUACGTT against Fastkd1 -0.958
GCUCUCAUCGUCCCUGAAUTT against Cln8 -0.925
GCACGAAUGCCUUUUUAGATT against Mphosph8 0.32
CGGUAUAUCCAAAUUUCUCTT against Art2a 0.87
GCGGUGUAAACAGAUGGAGTT against Atg3 0.889
GGAUACCACUUCAUCACCCTT against Gm9801 -0.56
GGCCUUCUCUGACUUUCUGTT against Zfp324 -0.633
GGAAGUUUGCUCCAGCCUUTT against Tmem33 -0.202
GCCUGACCGACUCAACUACTT against Dbh 0.354
GCACCAUCGCUUUGUUAUUTT against Hdlbp 1.19
CCCUAACAAACCCUAUUAUTT against Kdm6b -1.49
GUAAAGGUCUUGAUAGCCUTT against Tcl1b2 0.0799
CCAAAGUUAUUGCAUGCACTT against Kcna4 1.25
CCCGAACCUGUUGUCUGAATT against Ttc8 -0.422
GGAACUCACGCACAUAUUUTT against Net1 -0.483
GGAGUCGUUUUCUGUUACUTT against Gemin5 -0.22
GGAAAGAAGAAGAGGUGAGTT against Pecr 1.41
CGGAAUGCCAAAGAUGUGGTT against Sult1d1 -0.872
CCGUACUCUACCUCCACAATT against Flrt2 -1.19
GGAAGCUUCUUCAGUACAATT against Rai14 0.639
GGGUUCAUUUUUGGCUUUCTT against Serpina3m 0.0735
GGCUAUGAGAAAUACACUCTT against Zfp35 -0.591
GGACUCAGCAUCGUGAUACTT against Krtap15 -0.972
GCGGUUUGUGUUGAUCUUGTT against Olfr768 0.572
GCACUUACGCAGGCAUUUUTT against Apoc2 -0.721
GGAGAGUCUCCAGACUUUGTT against Med29 -0.521
CCUAAAACUCCUCUAUCUUTT against Lrriq3 1.62
GGAUGAAGAGAAAAAUUGATT against Slc20a1 -0.328
GCUUUUGACGAGCAAGCAGTT against Eme1 1.47
GCUAAAAAGCCGAAUUCUATT against a -0.00453
CCGUGCCAAACUUCUUACUTT against 2610528J11Rik -0.1
GCAUUUCUACUGGAUUGUGTT against Luc7l2 0.0609
GCUAUUGAAACUUAUGAGUTT against Srsf11 -1.68
GGCAGGUUCAUUGAGGUUCTT against Ogfod3 1.26
GCUGUACGAGAAUAAGAAGTT against Impact -0.53
GGUUGUGGAUCAUUAUGAATT against Iscu -1.21
CGGAUAUUAUUGUUUGGAATT against Nlrp9a 0.407
GGUUGGAAUGCACACGAAATT against Tmem184c 0.564
GCUUCCUAGAUCAUGACUGTT against Ube2g2 -0.318
GGGUUUGACAACUUGACCUTT against Stradb -1.04
GCACGUGAACAACUCCAACTT against Ccdc144b 0.28
GGUAGUGCAAGUGUUCCGCTT against Kcns1 -0.467
CCAGAGCGAGUACAUUGCATT against Xpnpep1 -0.478
GCCUCUACAAGCCAACAUGTT against Pdgfc 0.874
AGCUCACAUCGUACUGAAGTT against Ctag2 -0.689
GCUACUCCAAUAAACGACATT against Glod5 0.678
GGAAGACUGUUUUGAGUACTT against Brat1 1.55
GGAAAAGACAUCAUUGUGCTT against Olfr914 -1.38
GCCUGAAAAGUUUAAACUCTT against Nlrp9b -0.256
GGGAUAAAGAUGAAGAACUTT against Tmem167b 1.31
GGAGAGAAAUCCAAAACCCTT against Arf6 -1.23
GGAAAAUCAAGACCUAUGGTT against Obox6 -1.37
GAACCUAAAGUCAUACUUGTT against Bcl2a1c 0.375
GGAAGUCAAGCAAAAGUUUTT against Hsd17b7 -0.516
GGGCAGGGAGAAAAAAAAATT against Cxcl17 -1.3
GGCAGAAGGAACAAGAGAATT against Cd209b -0.504
GGCACUUAUUUCUGUGUUCTT against Trav13-5 0.759
GGAGUUACUGACUAAGAACTT against Prl7a1 -0.625
GGAGCAACAGAAAAAGUGATT against Bsdc1 -0.892
GGAGGAGCUUUACACGGUUTT against Synrg 1.3
GAUGGAUCGAACUCUGCACTT against Stard10 -0.957
GGGAUGCAUUUCUCAAAUCTT against Olfr731 -1.26
GGAACAGCCUGUCAUUGAATT against Scn1a -1.14
UGCUUUCAUUCUAACAAGCTT against Olfr926 -0.429
CGUAGAUCUGGAUUGCUUUTT against Poli 1.74
GGUCAACAUGGAGAAGUACTT against Sp100 -0.297
CGUGCUGACUCAUAACCUGTT against Dync1li2 0.12
GGUCUCCAAGGAAAAUGAGTT against H2-Q2 0.797
GGGAGCAUCACCUCUAUCUTT against Plaat5 -0.18
CCUAAUGAUAGAGGAGCUGTT against Myoz3 0.203
GGGAGAAAAAGCCCGGUGATT against Slc22a18 -0.919
GCAUACCAGUCUCAUCGCATT against Ipo5 -0.0861
GGAGCAAAAAUUCUCCCAUTT against Il18rap -1.32
GGCCAUGAUGGCUUUUACUTT against Serpinf2 -0.652
GGAAACCAGACUUUCCCUATT against Vmn1r43 -0.18
GGUUCCUGAGUCCUGAAUUTT against Mrpl19 -0.196
CCUAAGUAAGAUGACAUUUTT against Slc35f5 -0.861
GGUCUUCUACAGGAGCAAATT against Bco1 1.47
CCAAAUAGCAGUAUCAGGATT against Mavs -0.142
CCCGGUGCAGGAAUUCAACTT against Trmt1 1.29
GGAGAGUCCACUAAUACUGTT against Dmrt3 0.217
GGGUACCUCCCUGAGAUAUTT against Tyrobp 0.517
CCAGCACGCUGAAGUCUGATT against Adam19 1.21
GGAGUGAUGUGCAAUACUUTT against Pgam1 0.494
GGAUGACCAAUCAAUCAGGTT against Mylk 0.16
CCUAAUCCUGAUAAUUCCATT against Niban2 -1.54
CGAUAAUUGGCUAAACAGATT against Hook3 -0.504
GGAUAUCCAUAGAAUGUAATT against Perm1 -1.03
GCAAAGACGAAAUGCCGAGTT against Ttc32 -0.23
GGAUUUAGUUGAAGCCUUCTT against Apol10a -0.586
GGCAUCAAUAAUGGAAUCATT against Sbsn -0.00275
CCACUGAACUUAACCUUGGTT against Fndc10 -1.16

Six records picked at random from the list so far:
z-score, inactive:
GGUCUUCUACAGGAGCAAATT against Bco1 1.47
GCUAUUGAAACUUAUGAGUTT against Srsf11 -1.68
CGGUAUAUCCAAAUUUCUCTT against Art2a 0.87
GCUCUCAUCGUCCCUGAAUTT against Cln8 -0.925
GCGGUUUGUGUUGAUCUUGTT against Olfr768 0.572
AGCUCACAUCGUACUGAAGTT against Ctag2 -0.689
